# Reference: patent US20230174662A1, “METHODS OF TREATING CASTRATE-RESISTANT PROSTATE CANCER” (FONDAZIONE PER L'ISTITUTO ONCOLOGICO DI RICERCA (IOR), priority 2019, published 2023)
# At least one structure is not confirmed: it was looked up by name or label, or the drawing left a doubt.
# Test system: c-Myc, COUP-TFII and cyclin D1 in CDCP1; Pten−/− MEFs
# Assay: Western blot / qRT-PCR of c-Myc, COUP-TFII and cyclin D1 in MEFs treated with saracatinib
# Assay type: cell-based, mouse
# Settings: saracatinib 100 nM, 12 hr
smiles,measurement,value
CN1CCN(CCOc2cc(OC3CCOCC3)c3c(Nc4c(Cl)ccc5c4OCO5)ncnc3c2)CC1 [saracatinib],"c-Myc, COUP-TFII and cyclin D1 mRNA and protein levels",significantly reduced
